# Experimental data published in the supplement of paper PMC8728848.
# The other results are listed elsewhere or left out.
# Columns and labels:
# Assay in all cases: glycan array binding signal (z-score within array); higher = stronger binding
# Conditions in all cases: glycan notation: IUPAC condensed, linker removed
# [1] = target: Gal(b1-3)GlcNAc(b1-6)GalNAc
# How it was run: (§1)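 The binding signal is a Z-score computed within each array and averaged over linkers. Arrays of the same protein sequence at different concentrations or buffers were also averaged together. Data originate from 3228 arrays in the Consortium for Functional Glycomics database, kept only where the protein sequence was available.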
# [2] = target: Gal(b1-3)GlcNAc(b1-6)[Gal(b1-3)]GalNAc
# How it was run: as §1
# [3] = target: Gal(b1-3)GlcNAc6S
# How it was run: as §1
# [4] = target: Gal(b1-3)[Fuc(a1-4)]GlcNAc
# How it was run: as §1
# [5] = target: Gal(b1-3)[Fuc(a1-4)]GlcNAc(b1-2)Man
# How it was run: as §1
# [6] = target: Gal(b1-3)[Fuc(a1-4)]GlcNAc(b1-2)Man(a1-3)[Gal(b1-3)[Fuc(a1-4)]GlcNAc(b1-2)Man(a1-6)]Man(b1-4)GlcNAc(b1-4)[Fuc(a1-6)]GlcNAc
# How it was run: as §1
# [7] = target: Gal(b1-3)[Fuc(a1-4)]GlcNAc(b1-3)Gal(b1-3)[Fuc(a1-4)]GlcNAc
# How it was run: as §1
# [8] = target: Gal(b1-3)[Fuc(a1-4)]GlcNAc(b1-3)Gal(b1-4)[Fuc(a1-3)]GlcNAc
# How it was run: as §1
# [9] = target: Gal(b1-3)[Fuc(a1-4)]GlcNAc(b1-6)GalNAc
# How it was run: as §1
# [10] = target: Gal(b1-3)[GlcNAc(b1-6)]GalNAc
# How it was run: as §1
# [11] = target: Gal(b1-3)[Neu5Ac(a2-6)]GalNAc
# How it was run: as §1
# [12] = target: Gal(b1-3)[Neu5Ac(a2-6)]GlcNAc(b1-4)Gal(b1-4)Glc
# How it was run: as §1
# [13] = target: Gal(b1-3)[Neu5Ac(b2-6)]GalNAc
# How it was run: as §1
# [14] = target: Gal(b1-4)Gal
# How it was run: as §1
# [15] = target: Gal(b1-4)GalNAc(a1-3)[Fuc(a1-2)]Gal(b1-4)GlcNAc
# How it was run: as §1
# [16] = target: Gal(b1-4)GalNAc(b1-3)[Fuc(a1-2)]Gal(b1-4)GlcNAc
# How it was run: as §1
# [17] = target: Gal(b1-4)Glc
# How it was run: as §1
# [18] = target: Gal(b1-4)Glc6S
# How it was run: as §1
# [19] = target: Gal(b1-4)GlcNAc
# How it was run: as §1
# [20] = target: Gal(b1-4)GlcNAc(a1-6)Gal(b1-4)GlcNAc
# How it was run: as §1
# [21] = target: Gal(b1-4)GlcNAc(b1-2)Man
# How it was run: as §1
# [22] = target: Gal(b1-4)GlcNAc(b1-2)Man(a1-3)Man(b1-4)GlcNAc(b1-4)GlcNAc
# How it was run: as §1
# [23] = target: Gal(b1-4)GlcNAc(b1-2)Man(a1-3)[Gal(b1-4)GlcNAc(b1-2)Man(a1-6)]Man(b1-4)GlcNAc(b1-4)GlcNAc
# How it was run: as §1
# [24] = target: Gal(b1-4)GlcNAc(b1-2)Man(a1-3)[Gal(b1-4)GlcNAc(b1-2)Man(a1-6)]Man(b1-4)GlcNAc(b1-4)[Fuc(a1-6)]GlcNAc
# How it was run: as §1
# [25] = target: Gal(b1-4)GlcNAc(b1-2)Man(a1-3)[Gal(b1-4)GlcNAc(b1-2)Man(a1-6)][Gal(b1-4)GlcNAc(b1-4)]Man(b1-4)GlcNAc(b1-4)[Fuc(a1-6)]GlcNAc
# How it was run: as §1
# [26] = target: Gal(b1-4)GlcNAc(b1-2)Man(a1-3)[Gal(b1-4)GlcNAc(b1-2)Man(a1-6)][GlcNAc(b1-4)]Man(b1-4)GlcNAc(b1-4)[Fuc(a1-6)]GlcNAc
# How it was run: as §1
# [27] = target: Gal(b1-4)GlcNAc(b1-2)Man(a1-3)[GlcNAc(b1-2)Man(a1-6)]Man(b1-4)GlcNAc(b1-4)GlcNAc
# How it was run: as §1
# [28] = target: Gal(b1-4)GlcNAc(b1-2)Man(a1-3)[GlcNAc(b1-4)][Gal(b1-4)GlcNAc(b1-2)Man(a1-6)]Man(b1-4)GlcNAc(b1-4)GlcNAc
# How it was run: as §1
# [29] = target: Gal(b1-4)GlcNAc(b1-2)Man(a1-3)[Man(a1-6)]Man(b1-4)GlcNAc(b1-4)GlcNAc
# How it was run: as §1
# [30] = target: Gal(b1-4)GlcNAc(b1-2)Man(a1-6)Man(b1-4)GlcNAc(b1-4)GlcNAc
# How it was run: as §1
# [31] = target: Gal(b1-4)GlcNAc(b1-2)Man(a1-6)[GlcNAc(b1-2)Man(a1-3)]Man(b1-4)GlcNAc(b1-4)GlcNAc
# How it was run: as §1
# [32] = target: Gal(b1-4)GlcNAc(b1-2)Man(a1-6)[Man(a1-3)]Man(b1-4)GlcNAc(b1-4)GlcNAc
# How it was run: as §1
# [33] = target: Gal(b1-4)GlcNAc(b1-2)[Gal(b1-4)GlcNAc(b1-4)]Man(a1-3)[Gal(b1-4)GlcNAc(b1-2)Man(a1-6)]Man(b1-4)GlcNAc(b1-4)GlcNAc
# How it was run: as §1
# [34] = target: Gal(b1-4)GlcNAc(b1-2)[Gal(b1-4)GlcNAc(b1-4)]Man(a1-3)[Gal(b1-4)GlcNAc(b1-2)[Gal(b1-4)GlcNAc(b1-6)]Man(a1-6)]Man(b1-4)GlcNAc(b1-4)GlcNAc
# How it was run: as §1
# [35] = target: Gal(b1-4)GlcNAc(b1-2)[Gal(b1-4)GlcNAc(b1-4)]Man(a1-3)[GlcNAc(b1-4)][Gal(b1-4)GlcNAc(b1-2)Man(a1-6)]Man(b1-4)GlcNAc(b1-4)GlcNAc
# How it was run: as §1
# [36] = target: Gal(b1-4)GlcNAc(b1-2)[Gal(b1-4)GlcNAc(b1-4)]Man(a1-3)[GlcNAc(b1-4)][Gal(b1-4)GlcNAc(b1-2)[Gal(b1-4)GlcNAc(b1-6)]Man(a1-6)]Man(b1-4)GlcNAc(b1-4)GlcNAc
# How it was run: as §1
# [37] = target: Gal(b1-4)GlcNAc(b1-2)[Gal(b1-4)GlcNAc(b1-6)]Man(a1-6)[Gal(b1-4)GlcNAc(b1-2)Man(a1-3)]Man(b1-4)GlcNAc(b1-4)GlcNAc
# How it was run: as §1
binder,measurement,setting,value
Epa11 (Candida glabrata) (protein) MGSSHHHHHHSSGLVPRGSHMASSNAPNYPVGCSPSVGTQLTPGLSLEVYAYPMDGNNGYCWNATYKDPEFPRSGYLKNKLLGKADGVVGPLNFLAKNKDCSPKVDTLPAGFNFPQPITVTNFTMVLFGYLAPKQSGKYTFKLLADDLLLLNLGATNAFDCCNREATKNNLGEFLAYNLWPNQDKNVTVYLEKGVYYPLRLFFNNRDGGSQLDFSYYFNDSPAPLTDFSGMFFSVPDGAECPARI,glycan array binding signal (z-score),[1],0.7
same,glycan array binding signal (z-score),[2],0.063
same,glycan array binding signal (z-score),[3],-0.031
same,glycan array binding signal (z-score),[4],-0.343
same,glycan array binding signal (z-score),[5],-0.104
same,glycan array binding signal (z-score),[6],0.265
same,glycan array binding signal (z-score),[7],2.35
same,glycan array binding signal (z-score),[8],-0.583
same,glycan array binding signal (z-score),[9],0.96
same,glycan array binding signal (z-score),[10],-0.281
same,glycan array binding signal (z-score),[11],0.753
same,glycan array binding signal (z-score),[12],0.3
same,glycan array binding signal (z-score),[13],1.68
same,glycan array binding signal (z-score),[14],-0.517
same,glycan array binding signal (z-score),[15],-0.453
same,glycan array binding signal (z-score),[16],-0.449
same,glycan array binding signal (z-score),[17],-0.879
same,glycan array binding signal (z-score),[18],-0.188
same,glycan array binding signal (z-score),[19],-0.896
same,glycan array binding signal (z-score),[20],-0.486
same,glycan array binding signal (z-score),[21],-0.157
same,glycan array binding signal (z-score),[22],-0.372
same,glycan array binding signal (z-score),[23],-0.671
same,glycan array binding signal (z-score),[24],0.196
same,glycan array binding signal (z-score),[25],0.292
same,glycan array binding signal (z-score),[26],-0.238
same,glycan array binding signal (z-score),[27],-0.246
same,glycan array binding signal (z-score),[28],-1.27
same,glycan array binding signal (z-score),[29],0.333
same,glycan array binding signal (z-score),[30],-0.165
same,glycan array binding signal (z-score),[31],0.418
same,glycan array binding signal (z-score),[32],0.619
same,glycan array binding signal (z-score),[33],-0.412
same,glycan array binding signal (z-score),[34],-0.643
same,glycan array binding signal (z-score),[35],-0.062
same,glycan array binding signal (z-score),[36],-0.968
same,glycan array binding signal (z-score),[37],-2.79
